PubChem BioAssay AID1259308, NCATS, 2017
This is one part, drawn at random, of about 59,000 deposited reagents. Of all reagents, about 1,510 (2.6%) got an active call. 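Calls use total luciferase alone and ignore viability, so some active siRNAs may act by altering cell number.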 The numbers tell different reagents against one gene apart. Not all columns of the deposit are shown. No sequences are given here.

- Purpose: 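Genes whose loss raises luciferase production in HEK293 cells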 (primary screen)
- System: human HEK293 embryonic kidney cells stably expressing firefly luciferase (HEK-CMV-Luc2-Hygro)
- Knock-down reagent: single siRNA against human genes, 0.8 pmol siRNA per well
- Time to read-out: 72 h
- Read-out: 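Reporter luminescence and viable-cell signal on separate replicate plates, given as percent of non-targeting control and median/MAD z-scores, plus per-cell luciferase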
- Scale: total luciferase, z-score and total luciferase, % of control: higher = more reporter protein produced
- Rule for the call: 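An siRNA counts as active if its total luciferase robust z-score exceeds 3; genes with two or more such siRNAs out of three were retested with fresh siRNAs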
- Meaning of the calls: active = raised luciferase; inactive = no rise

target	reagent	total luciferase, z-score	total luciferase, % of control	outcome
SGO1	1	-0.983	62.3	inactive
SGO1	2	0.226	86.4	inactive
SGO1	3	-0.643	69.1	inactive
EDEM1	1	-0.801	66	inactive
EDEM1	2	-0.0617	80.7	inactive
EDEM1	3	0.342	88.7	inactive
DYNAP	1	-3.28	16.7	inactive
DYNAP	2	-1.21	57.8	inactive
DYNAP	3	-0.194	78	inactive

3 entries from above, arranged by “total luciferase, % of control”, descending.
target	reagent	total luciferase, z-score	total luciferase, % of control	outcome
SGO1	2	0.226	86.4	inactive
SGO1	3	-0.643	69.1	inactive
SGO1	1	-0.983	62.3	inactive

Additional reagents follow:
target	reagent	total luciferase, z-score	total luciferase, % of control	outcome
DEFB115	1	-0.303	75.9	inactive
DEFB115	2	-1.67	48.7	inactive
DEFB115	3	0.491	91.7	inactive
SLC28A2	1	-0.961	62.8	inactive
SLC28A2	2	-0.917	63.7	inactive
SLC28A2	3	0.292	87.7	inactive
ZNF32	1	-0.0318	81.3	inactive
ZNF32	2	-0.481	72.3	inactive
ZNF32	3	-2.75	27.3	inactive
SAMD14	1	0.608	94	inactive
SAMD14	2	-0.417	73.6	inactive
SAMD14	3	-0.635	69.3	inactive
CFAP418	1	-1.35	55	inactive
CFAP418	2	-1.51	51.9	inactive
CFAP418	3	0.823	98.3	inactive
